These are yes or no findings as the source states them, for the method shown. Binding seen in cells or lysates may run through a third protein. A yes stands for co-enrichment or nearness to the bait. Other partners may have been found.
Target: protein tyrosine phosphatase receptor type F polypeptide interacting protein alpha 4 (PPFIA4) (human (endogenous in C4-2B and LNCaP)) (UniProt O75335)
Experiment: affinity purification with mass spectrometry; C4-2B cell lysates immunoprecipitated with PPFIA4 antibody, SDS-PAGE, Coomassie blue staining, bands cut, LC-MS/MS

The chains behind the UniProt entries cited, without tags or fusion partners.
UniProt O75335: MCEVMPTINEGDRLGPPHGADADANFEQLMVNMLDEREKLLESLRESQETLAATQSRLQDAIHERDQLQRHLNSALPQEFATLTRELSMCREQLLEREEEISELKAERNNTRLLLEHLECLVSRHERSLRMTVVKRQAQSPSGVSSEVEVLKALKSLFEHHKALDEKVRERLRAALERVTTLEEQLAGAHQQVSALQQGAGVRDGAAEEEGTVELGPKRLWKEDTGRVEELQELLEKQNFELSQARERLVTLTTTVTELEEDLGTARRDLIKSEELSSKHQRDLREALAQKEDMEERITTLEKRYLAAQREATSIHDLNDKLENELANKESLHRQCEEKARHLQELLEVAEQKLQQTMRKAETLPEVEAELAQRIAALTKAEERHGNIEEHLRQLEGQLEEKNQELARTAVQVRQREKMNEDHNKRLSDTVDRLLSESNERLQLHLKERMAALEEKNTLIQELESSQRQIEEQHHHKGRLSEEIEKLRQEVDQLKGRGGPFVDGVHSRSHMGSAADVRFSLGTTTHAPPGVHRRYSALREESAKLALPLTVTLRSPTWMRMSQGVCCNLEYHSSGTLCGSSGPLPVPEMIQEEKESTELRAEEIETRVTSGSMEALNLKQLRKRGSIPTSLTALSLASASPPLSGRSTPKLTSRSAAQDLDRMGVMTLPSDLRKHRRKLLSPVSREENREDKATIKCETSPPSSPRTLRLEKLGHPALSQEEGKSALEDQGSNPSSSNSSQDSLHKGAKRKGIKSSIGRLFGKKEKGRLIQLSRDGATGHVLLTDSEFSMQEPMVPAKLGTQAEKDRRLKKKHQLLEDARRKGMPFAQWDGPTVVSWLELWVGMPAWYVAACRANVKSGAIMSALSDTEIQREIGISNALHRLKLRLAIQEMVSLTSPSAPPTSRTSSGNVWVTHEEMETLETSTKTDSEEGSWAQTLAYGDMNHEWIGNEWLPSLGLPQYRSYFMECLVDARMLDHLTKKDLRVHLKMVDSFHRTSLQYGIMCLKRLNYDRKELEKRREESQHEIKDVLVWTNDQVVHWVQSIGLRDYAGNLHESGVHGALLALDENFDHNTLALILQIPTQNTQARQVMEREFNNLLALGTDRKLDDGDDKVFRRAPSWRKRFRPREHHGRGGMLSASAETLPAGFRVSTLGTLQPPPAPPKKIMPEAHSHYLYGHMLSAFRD

B1: methylenetetrahydrofolate dehydrogenase 2 (MTHFD2) (enzyme, UniProt P13995 36-350)
chain: EAVVISGRKLAQQIKQEVRQEVEEWVASGNKRPHLSVILVGENPASHSYVLNKTRAAAVVGINSETIMKPASISEEELLNLINKLNNDDNVDGLLVQLPLPEHIDERRICNAVSPDKDVDGFHVINVGRMCLDQYSMLPATPWGVWEIIKRTGIPTLGKNVVVAGRSKNVGMPIAMLLHTDGAHERPGGDATVTISHRYTPKEQLKKHTILADIVISAAGIPNLITADMIKEGAAVIDVGINRVHDPVTAKPKLVGDVDFEGVRQKAGYITPVPGGVGPMTVAMLMKNTIIAAKKVLRLEEREVLKSKELGVATN
For B1, the binding was “binds”.
